Results on 2 substances are retold here after publication PMC7880997.

Protein sequences, listed by entry. Tags and fused reporters are not part of them. Lines headed by an entry give the natural chain unless they say otherwise; changes in a name come on top.
UniProt Q9VHG6: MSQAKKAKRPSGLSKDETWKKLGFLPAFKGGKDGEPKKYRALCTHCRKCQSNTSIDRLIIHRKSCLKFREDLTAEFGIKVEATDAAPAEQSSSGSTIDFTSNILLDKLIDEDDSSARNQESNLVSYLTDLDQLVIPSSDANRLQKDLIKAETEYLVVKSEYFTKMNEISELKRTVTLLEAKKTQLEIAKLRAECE

Results are given in words; binding and its absence hold for the method and conditions named. In cells and extracts the contact can be indirect. These calls come from enrichment with a bait or labelling near it, and not all partners need be listed. Sequences can lack the tags named with a protein.

The target of this assay is T1, GFP-tagged recombinant WT CTCF N-terminus (dmCTCF residues 1-293) (Drosophila melanogaster) (UniProt Q9VS55).
T1 sequence: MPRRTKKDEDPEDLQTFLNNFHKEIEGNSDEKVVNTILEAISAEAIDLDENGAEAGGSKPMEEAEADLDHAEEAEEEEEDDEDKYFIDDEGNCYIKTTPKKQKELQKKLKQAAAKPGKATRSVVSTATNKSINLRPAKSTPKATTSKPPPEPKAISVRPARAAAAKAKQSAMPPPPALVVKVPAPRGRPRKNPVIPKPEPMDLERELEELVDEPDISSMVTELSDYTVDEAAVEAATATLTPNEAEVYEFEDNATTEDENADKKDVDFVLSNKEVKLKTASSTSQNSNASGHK
Kind of assay: affinity purification with mass spectrometry; purified GFP-3C-CTCF1-293-3C-His6 immobilised on GFP binder beads, incubated with Drosophila embryo nuclear extract (IP buffer, 150 mM potassium acetate, 0.2% Igepal, 3 h, 4 °C); eluted with 3C protease; biological duplicates; only the target purified.

As for Insulator binding factor 1 (Ibf1), the binding result was “binds”.
As for “Insulator binding factor 2 (Ibf2) (from UniProt Q9VHG6)”, the entry is “binds”.
